Test results reported in the supplement of paper PMC4604168 (melanoma cell lines).
This is one part of the list. Single values are uncertain, as repeats are few or missing.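 The apoptosis fraction was the count of cleaved-PARP antibody-stained nuclei relative to all DNA-stained nuclei, imaged in 1,536-well plates. Screening doses were set so most cells survived, and baseline and induced cleaved-PARP levels vary greatly across cell lines.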

Experiments:
Test in all cases: cleaved PARP positive nuclei fraction relative to DMSO control; melanoma cells; higher = more apoptosis
Conditions in all cases: library dose: low library concentration; 72 h
MZ2-MEL = tested on: MZ2-MEL
MeWo = tested on: MeWo
RPMI7951 = tested on: RPMI7951
RVH-421 = tested on: RVH-421
SkMel28 = tested on: SkMel28
SkMel2 = tested on: SkMel2
SkMel30 = tested on: SkMel30
SkMel5 = tested on: SkMel5
UACC257 = tested on: UACC257
UACC62 = tested on: UACC62
WM115 = tested on: WM115
WM1716 = tested on: WM1716
WM1745 = tested on: WM1745
WM3526 = tested on: WM3526
WM3619 = tested on: WM3619
WM451Lu = tested on: WM451Lu

Row | Compound | cleaved PARP positive nuclei fraction (MZ2-MEL) | cleaved PARP positive nuclei fraction (MeWo) | cleaved PARP positive nuclei fraction (RPMI7951) | cleaved PARP positive nuclei fraction (RVH-421) | cleaved PARP positive nuclei fraction (SkMel28) | cleaved PARP positive nuclei fraction (SkMel2) | cleaved PARP positive nuclei fraction (SkMel30) | cleaved PARP positive nuclei fraction (SkMel5) | cleaved PARP positive nuclei fraction (UACC257) | cleaved PARP positive nuclei fraction (UACC62) | cleaved PARP positive nuclei fraction (WM115) | cleaved PARP positive nuclei fraction (WM1716) | cleaved PARP positive nuclei fraction (WM1745) | cleaved PARP positive nuclei fraction (WM3526) | cleaved PARP positive nuclei fraction (WM3619) | cleaved PARP positive nuclei fraction (WM451Lu)
1 | Cn1cncc1[C@@](N)(c1ccc(Cl)cc1)c1ccc2c(c1)c(-c1cccc(Cl)c1)cc(=O)n2C [tipifarnib] + NCC(=O)Nc1ccc(-n2nc(C(F)(F)F)cc2-c2ccc3c(ccc4ccccc43)c2)cc1 [OSU03012] (first compound 0.01 µM, partner dose 1 µM) | 32.9% | 308% | 156% | 124% | 72.5% | 226% | 110% | 74.3% | 176% | 304% | 138% | 130% | 96.9% | 109% | 84.4% | 110%
2 | C=CCn1c(=O)c2cnc(Nc3ccc(N4CCN(C)CC4)cc3)nc2n1-c1cccc(C(C)(C)O)n1 + Cc1ccc(NC(=O)c2cccc(N(C)C)c2)cc1NC(=O)c1ccc(O)cc1 [ZM336372] (first compound 0.02 µM, partner dose 2 µM) | 108% | 139% | 50.3% | 91.7% | 62.9% | 99.2% | 82.2% | 84.7% | 60.8% | 132% | 145% | 111% | 105% | 302% | 173% | 151%
3 | CC(=O)c1c(C)c2cnc(Nc3ccc(N4CCNCC4)cn3)nc2n(C2CCCC2)c1=O [palbociclib] + N#Cc1c(O)c2c(-c3ccc(-c4ccccc4O)cc3)csc2[nH]c1=O [A769662] (first compound 0.04 µM, partner dose 2 µM) | 105% | 39.5% | 44.1% | 231% | 181% | 66.3% | 62.7% | 103% | 246% | 168% | 86.5% | 89.9% | 120% | 120% | 133% | 121%
4 | NC(=O)Nc1cc(-c2cccc(F)c2)sc1C(=O)N[C@H]1CCCNC1 + COc1cc2c(Oc3ccc4[nH]c(C)cc4c3F)ncnc2cc1OCCCN1CCCC1 [cediranib] (first compound 0.02 µM, partner dose 0.4 µM) | 45.8% | 131% | 159% | 19.9% | 152% | 77.1% | 76.8% | 61% | 36.9% | 216% | 66% | 143% | 84% | 63.3% | 116% | 49.2%
5 | Clc1ccc(Nc2nnc(Cc3ccncc3)c3ccccc23)cc1 [vatalanib] + COc1cc2ncnc(Nc3ccc(Oc4ccccc4)cc3)c2cc1OC [SrcI1] (first compound 2 µM, partner dose 2 µM) | 42.3% | 62.6% | 114% | 77.5% | 144% | 120% | 107% | 40.2% | 130% | 148% | 89.9% | 56.9% | 126% | 63.5% | 61.2% | 29.2%
6 | C[C@]1(c2nc3c(C(N)=O)cccc3[nH]2)CCCN1 [Veliparib] + CN(C)S(=O)(=O)c1ccc2c(c1)/C(=C/c1cc3c([nH]1)CCCC3)C(=O)N2 [SU6656] (first compound 1.4 µM, partner dose 0.4 µM) | 95.6% | 54.6% | 51.9% | 49% | 144% | 101% | 66.7% | 130% | 38.4% | 124% | 341% | 57.2% | 95.3% | 56.3% | 79.7% | 262%
7 | CC1(C)NC(=O)N(c2ccc([N+](=O)[O-])c(C(F)(F)F)c2)C1=O [nilutamide] + NCC(=O)Nc1ccc(-n2nc(C(F)(F)F)cc2-c2ccc3c(ccc4ccccc43)c2)cc1 [OSU03012] (first compound 1 µM, partner dose 1 µM) | 181% | 132% | 53.8% | 118% | 32.8% | 221% | 128% | 140% | 95.7% | 156% | 51% | 75.1% | 88% | 100% | 104% | 104%
8 | Cn1c(Nc2ccc(C(F)(F)F)cc2)nc2cc(Oc3ccnc(-c4ncc(C(F)(F)F)[nH]4)c3)ccc21 + NC(=O)Nc1cc(-c2cccc(F)c2)sc1C(=O)N[C@H]1CCCNC1 [AZD7762] (first compound 0.08 µM, partner dose 0.02 µM) | 84.1% | 73.1% | 205% | 66.2% | 515% | 260% | 238% | 89.5% | 376% | 668% | 1250% | 293% | 102% | 140% | 117% | 48.9%
9 | Clc1ccc(Nc2nnc(Cc3ccncc3)c3ccccc23)cc1 [vatalanib] + CCCCCCCCCCCC1=C(O)C(=O)C=C(O)C1=O [Embelin] (first compound 2 µM, partner dose 1.2 µM) | 39.6% | 116% | 263% | 68.3% | 104% | 102% | 18.9% | 139% | 142% | 336% | 156% | 95.9% | 102% | 70.4% | 79.3% | 77.1%
10 | C=CCNC1=C2C[C@@H](C)C[C@H](OC)[C@H](O)[C@@H](C)/C=C(\C)[C@H](OC(N)=O)[C@@H](OC)/C=C\C=C(/C)C(=O)NC(=CC1=O)C2=O [Tanespimycin] + Oc1nc(-c2ccc(C(F)(F)F)cc2)nc2c1CSCC2 [XAV939] (first compound 0.002 µM, partner dose 2 µM) | 63.7% | 71.2% | 85.1% | 140% | 166% | 80.2% | 39.2% | 84.2% | 277% | 95.7% | 155% | 91.8% | 150% | 77.3% | 124% | 66.3%
11 | C#Cc1cccc(Nc2ncnc3cc(OCCOC)c(OCCOC)cc23)c1 [erlotinib] + NC(=O)Nc1cc(-c2cccc(F)c2)sc1C(=O)N[C@H]1CCCNC1 [AZD7762] (first compound 0.8 µM, partner dose 0.02 µM) | 101% | 61.1% | 242% | 51.9% | 55.2% | 51.7% | 44.8% | 37% | 121% | 297% | 320% | 150% | 111% | 40.1% | 214% | 186%
12 | Clc1ccc(Nc2nnc(Cc3ccncc3)c3ccccc23)cc1 [vatalanib] + O=C(O)C(=O)Nc1sc2c(c1C(=O)O)CCNC2 [TCS401] (first compound 2 µM, partner dose 1.66667 µM) | 192% | 82.2% | 81.7% | 37% | 115% | 140% | 183% | 220% | 123% | 148% | 90.9% | 113% | 117% | 63.3% | 231% | 194%
13 | C=CCNC1=C2C[C@@H](C)C[C@H](OC)[C@H](O)[C@@H](C)/C=C(\C)[C@H](OC(N)=O)[C@@H](OC)/C=C\C=C(/C)C(=O)NC(=CC1=O)C2=O [Tanespimycin] + O=C1NC(=O)/C(=C/c2ccc(-c3ccc(F)cc3O)o2)S1 [AS252424] (first compound 0.002 µM, partner dose 1 µM) | 138% | 72.2% | 106% | 78.3% | 99.7% | 87.6% | 90.2% | 693% | 218% | 67.5% | 103% | 62.2% | 110% | 85.6% | 112% | 406%
14 | C=CCNC1=C2C[C@@H](C)C[C@H](OC)[C@H](O)[C@@H](C)/C=C(\C)[C@H](OC(N)=O)[C@@H](OC)/C=C\C=C(/C)C(=O)NC(=CC1=O)C2=O [Tanespimycin] + O=C(O)C(=O)Nc1sc2c(c1C(=O)O)CCNC2 [TCS401] (first compound 0.002 µM, partner dose 1.66667 µM) | 216% | 65.8% | 78.8% | 68.7% | 124% | 124% | 134% | 75.5% | 191% | 42.4% | 125% | 253% | 102% | 165% | 79.1% | 35.2%
15 | C#Cc1cccc(Nc2ncnc3cc(OCCOC)c(OCCOC)cc23)c1 [erlotinib] + CN(NC(=O)CC(=O)NN(C)C(=S)c1ccccc1)C(=S)c1ccccc1 [STA4783] (first compound 0.8 µM, partner dose 0.006 µM) | 383% | 201% | 50.4% | 53.3% | 51.7% | 30.6% | 62.7% | 137% | 48.4% | 225% | 122% | 160% | 149% | 263% | 113% | 140%
16 | Nc1cccc2c1CN(C1CCC(=O)NC1=O)C2=O (centres undefined) [lenalidomide] + Cn1cncc1[C@@](N)(c1ccc(Cl)cc1)c1ccc2c(c1)c(-c1cccc(Cl)c1)cc(=O)n2C [tipifarnib] (first compound 1 µM, partner dose 0.01 µM) | 119% | 72.8% | 292% | 113% | 129% | 241% | 68.4% | 68.2% | 57.6% | 176% | 73.1% | 181% | 216% | 74.7% | 109% | 169%
17 | CO[C@@H]1[C@H](N(C)C(=O)c2ccccc2)C[C@H]2O[C@]1(C)n1c3ccccc3c3c4c(c5c6ccccc6n2c5c31)C(=O)NC4 [Midostaurin] + OCCn1cc(-c2cnc3nnn(Cc4ccc5ncccc5c4)c3n2)cn1 [PF04217903] (first compound 0.08 µM, partner dose 1 µM) | 142% | 158% | 308% | 2150% | 56.3% | 122% | 59.6% | 31.4% | 25.5% | 98.8% | 45.6% | 95.9% | 91.9% | 33.1% | 174% | 102%
18 | OCc1c[nH]c2ccccc12 [Indole-3-carbinol] + c1cc(-c2cnn3cc(-c4ccc(OCCN5CCCCC5)cc4)cnc23)ccn1 [Dorsomorphin] (first compound 0.8 µM, partner dose 0.4 µM) | 95.4% | 60.2% | 146% | 193% | 104% | 21.3% | 48.3% | 77.9% | 50.7% | 143% | 66.7% | 104% | 93.3% | 67% | 94.3% | 73%
19 | O=C(CCCCCCC(=O)Nc1ccccc1)NO [vorinostat] + Cn1cncc1[C@@](N)(c1ccc(Cl)cc1)c1ccc2c(c1)c(-c1cccc(Cl)c1)cc(=O)n2C [tipifarnib] (first compound 0.08 µM, partner dose 0.01 µM) | 95.9% | 428% | 108% | 151% | 69.5% | 237% | 244% | 156% | 127% | 292% | 167% | 149% | 96.7% | 80.8% | 109% | 130%

In a second layout: entries from further up.
Row	Compound	cleaved PARP positive nuclei fraction (MZ2-MEL)	cleaved PARP positive nuclei fraction (MeWo)	cleaved PARP positive nuclei fraction (RPMI7951)	cleaved PARP positive nuclei fraction (RVH-421)	cleaved PARP positive nuclei fraction (SkMel28)	cleaved PARP positive nuclei fraction (SkMel2)	cleaved PARP positive nuclei fraction (SkMel30)	cleaved PARP positive nuclei fraction (SkMel5)	cleaved PARP positive nuclei fraction (UACC257)	cleaved PARP positive nuclei fraction (UACC62)	cleaved PARP positive nuclei fraction (WM115)	cleaved PARP positive nuclei fraction (WM1716)	cleaved PARP positive nuclei fraction (WM1745)	cleaved PARP positive nuclei fraction (WM3526)	cleaved PARP positive nuclei fraction (WM3619)	cleaved PARP positive nuclei fraction (WM451Lu)
11	C#Cc1cccc(Nc2ncnc3cc(OCCOC)c(OCCOC)cc23)c1 [erlotinib] + NC(=O)Nc1cc(-c2cccc(F)c2)sc1C(=O)N[C@H]1CCCNC1 [AZD7762] (first compound 0.8 µM, partner dose 0.02 µM)	101%	61.1%	242%	51.9%	55.2%	51.7%	44.8%	37%	121%	297%	320%	150%	111%	40.1%	214%	186%
12	Clc1ccc(Nc2nnc(Cc3ccncc3)c3ccccc23)cc1 [vatalanib] + O=C(O)C(=O)Nc1sc2c(c1C(=O)O)CCNC2 [TCS401] (first compound 2 µM, partner dose 1.66667 µM)	192%	82.2%	81.7%	37%	115%	140%	183%	220%	123%	148%	90.9%	113%	117%	63.3%	231%	194%
